From publication PMC12660843, “Using phage display for rational engineering of a higher-affinity humanized 3’ phosphohistidine-specific antibody” (Communications Chemistry, 2025)
Results are given in words; binding and its absence hold for the method and conditions named. Some entries that bind do so weakly or less than the wild type. For some of these results: Where a sequence is shown, tags or fusion partners need not be part of it. Where no end group is shown, it is not given here. [ ]: non-standard residue; d: D form. The star is where a group is joined. 3‑pTza = 3-phosphotriazolyl alanine (also given as 3-phosphoryl-triazolylalanine); Biotin = O=C1N[C@H]2[C@H](CS[C@H]2CCCCC(=O)*)N1; Ahx = NCCCCCC(=O)O

Chains of the proteins cited; added tags and fusions are not shown. Residues count along the entry.
UniProt P02769, residues 25-607: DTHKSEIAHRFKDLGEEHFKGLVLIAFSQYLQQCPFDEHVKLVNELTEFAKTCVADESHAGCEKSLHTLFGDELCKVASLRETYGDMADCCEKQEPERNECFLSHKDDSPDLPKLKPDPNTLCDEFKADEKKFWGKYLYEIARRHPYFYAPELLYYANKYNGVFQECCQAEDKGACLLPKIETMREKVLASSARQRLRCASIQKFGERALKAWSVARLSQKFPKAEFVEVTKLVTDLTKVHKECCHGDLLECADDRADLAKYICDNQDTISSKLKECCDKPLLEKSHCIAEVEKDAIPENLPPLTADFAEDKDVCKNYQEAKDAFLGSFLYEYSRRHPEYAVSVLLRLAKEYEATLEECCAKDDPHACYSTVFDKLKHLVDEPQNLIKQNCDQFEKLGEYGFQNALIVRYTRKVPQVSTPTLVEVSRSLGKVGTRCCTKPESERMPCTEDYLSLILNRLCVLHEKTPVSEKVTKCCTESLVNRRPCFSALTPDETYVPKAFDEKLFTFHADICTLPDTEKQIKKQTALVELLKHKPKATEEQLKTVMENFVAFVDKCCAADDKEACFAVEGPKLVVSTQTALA

B1: hSC44.20 (Fab or IgG not stated, Fig. S17) (antibody, V domains shown)
VH: EVQLVESGGGLVQPGGSLRLSCTASGFSIDSYGFSWVRQAPGKGLEHIGYLTAGGRAFYASWAKSRSTITRNTNENTVTLKMNSLRAEDTAVYYCAKLGTGSRFAIWGQGTLVTVSS
VL: DIQLTQSPSSLSASVGDRVTITCRASQSVWRNKNVAWYQQKPGKAPKRLIYAIASLYSGVPSRFSGSGSGTDFTLTISSLQPEDFATYYCVGHYGSENDAYYAFGQGTKVEIK
B2: hSC44.20.N32F^L (Fab or IgG not stated, Fig. S17) (antibody, V domains shown)
VH: EVQLVESGGGLVQPGGSLRLSCTASGFSIDSYGFSWVRQAPGKGLEHIGYLTAGGRAFYASWAKSRSTITRNTNENTVTLKMNSLRAEDTAVYYCAKLGTGSRFAIWGQGTLVTVSS
VL: DIQLTQSPSSLSASVGDRVTITCRASQSVWRNKFVAWYQQKPGKAPKRLIYAIASLYSGVPSRFSGSGSGTDFTLTISSLQPEDFATYYCVGHYGSENDAYYAFGQGTKVEIK
B3: hSC44.20.N32F^L IgG (antibody, V domains shown)
VH: EVQLVESGGGLVQPGGSLRLSCTASGFSIDSYGFSWVRQAPGKGLEHIGYLTAGGRAFYASWAKSRSTITRNTNENTVTLKMNSLRAEDTAVYYCAKLGTGSRFAIWGQGTLVTVSS
VL: DIQLTQSPSSLSASVGDRVTITCRASQSVWRNKFVAWYQQKPGKAPKRLIYAIASLYSGVPSRFSGSGSGTDFTLTISSLQPEDFATYYCVGHYGSENDAYYAFGQGTKVEIK
notes: human IgG1, kappa light chain
B4: hSC44.20.N32Y^L IgG (antibody, V domains shown)
VH: EVQLVESGGGLVQPGGSLRLSCTASGFSIDSYGFSWVRQAPGKGLEHIGYLTAGGRAFYASWAKSRSTITRNTNENTVTLKMNSLRAEDTAVYYCAKLGTGSRFAIWGQGTLVTVSS
VL: DIQLTQSPSSLSASVGDRVTITCRASQSVWRNKYVAWYQQKPGKAPKRLIYAIASLYSGVPSRFSGSGSGTDFTLTISSLQPEDFATYYCVGHYGSENDAYYAFGQGTKVEIK
notes: human IgG1, kappa light chain

Legend:
[1] = target: T1, 3-pHis peptide (Biotin-AminocaproicAcid-A.G.A.G.H.A.G.A.G phosphorylated by phosphoramidate); assay: BLI; biotinylated peptides from pHis substrate proteins phosphorylated by phosphoramidate and immobilized on the streptavidin biosensor tip; antibody in solution, its format and concentration not stated; both purified
T1 construct: His-peptide, phosphorylated on His5; the phosphoramidate reaction gives a mixture of non-phosphorylated, 1-pHis, 3-pHis and di-pHis peptide; also called Biotinylated ACLYana-3-pHis; ACLYana-pHis; source: synthetic peptide, phosphorylated with potassium phosphoramidate; not shown: biotin, N-terminal, kept
T1 peptide: {Biotin-Ahx}-AGAG[3‑pHis]AGAG

[2] = target: T2, ACLY-pHis peptide (VQFG-pHis-AGAC); assay: as above
T2 sequence (peptide, phosphohistidine at position 5 of the peptide; biotin): VQFGHAGAC

[3] = target: T3, SCS-pHis peptide (RRMG-pHis-AGAI); assay: as above
T3 sequence (peptide, phosphohistidine at position 5 of the peptide; biotin): RRMGHAGAI

[4] = target: BSA (bovine) (UniProt P02769); assay: ELISA; polyreactivity ELISA: KLH 5 ug/mL, insulin 1 ug/mL, BSA 1% (w/v), streptavidin 10 ug/mL added to wells; IgG at 100 nM; both purified
[5] = target: streptavidin (UniProt P22629); assay: as above

Binder	binding [1]	binding [2]	binding [3]	binding [4]	binding [5]
B1	binds	binds	binds	–	–
B2	binds	binds	binds	–	–
B3	–	–	–	no binding (tested: IgG at 100 nM)	no binding (tested: IgG at 100 nM)
B4	–	–	–	no binding (tested: IgG at 100 nM)	no binding (tested: IgG at 100 nM)
